The filed quantity is “Percent Effect” (%). How 0% and 100% were set is not recorded. Most values in the screen are low, and negative values occur. Compounds were drawn at random from those tested, without regard to their results. Two or more numbers in one place are separate tests of the same structure; such repeats can differ widely.

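Viability assay of Plasmodium falciparum sporozoites; the read-out is not stated. The concentration is filed as 10 mM, unlikely as a test dose, so the dose is not known. The record gives no direction; compounds that gave an IC50 in retests scored well above the rest, so higher reads as lower viability. Strong results were mostly tested again. Of about 34,000 compounds tested this way, about 280 (0.84%) reached 50% or more in at least one test.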

structure	effect
CN1CCOC(CNCc2ccc(OCc3ccccn3)cc2)C1 (stereo not shown)	19.65
O=C(COC1CCCCC1)N1CCN(C(=O)Cc2ccccn2)CC1	-8
O=C1c2cnc(N3CCOCC3)nc2CN1c1ccc2c(c1)OCO2	-9.597
c1csc(-c2nc(CNC3CCc4ncnn4C3)cs2)c1 (stereo not shown)	1.771
Cc1nc(N)cc(C2CCN2CCOc2ccccc2)n1 (stereo not shown)	2.413
Cc1noc(C)c1CN1CC2(CCN(C(=O)c3cscn3)CC2)CC1=O	-5.671
CSc1ccccc1C(C(=O)O)N1CCN(Cc2ccccn2)CC1 (stereo not shown)	-5.509
CCOc1ccc(CNCC(O)c2ccccc2)cc1Cl.Cl (stereo not shown)	-18
[H][C@@]12CCN(Cc3c(C)noc3C)C[C@@]1([H])[C@H](C(=O)N1CCCO1)CCO2	0.7576
CCOCCCNc1ncc(-c2cccc(F)c2)c(-c2nccn2C)n1	0.3539
CCc1noc(CC)c1CNC(=O)Nc1ccc2[nH]nnc2c1	0.3337
Cn1ccc(-c2cc(C(=O)N3CCCCC3)c3ccccn23)n1	-2.836
Cc1cc(CN(C)CCC(O)c2ccccc2)no1 (stereo not shown)	-7.731
[H][C@@]12COC[C@]1(c1nnc(C3CC3)o1)CN(C(=O)c1cc(C)no1)C2	2.489
O=C(NCCc1ccccc1)N1CCC(C2OCCO2)CC1	28.36 & 65.96
CCc1nc(NCCCOC)c2c(n1)c(C)nn2C	1.316
Cn1cccc1C(=O)N1CCC2(CC1)CN(c1ccccc1)C(=O)CO2	0.7732
COCCCn1ccc(NC2CCOCC2)n1	0.9879
Cc1cccc(NC(=O)N2CCC3(CCC(C(=O)N(C)C)O3)CC2)c1 (stereo not shown)	-2.025
CC(C)C1CN(c2ncccn2)CCC(=O)N1CC1CC1 (stereo not shown)	0.614
O=C(Cc1csc(-c2ccc(Cl)cc2)n1)NC(C(=O)O)c1ccccc1 (stereo not shown)	-2.851
O=C(CC1CC1)N1CCN(Cc2cccnc2)c2ncccc2C1.O=C(O)C(F)(F)F.O=C(O)C(F)(F)F	8.094
COCCN1CCOCC2(C1)CN(C(=O)c1conc1C)CCO2.O=C(O)C(F)(F)F (stereo not shown)	4.538
CCN(Cc1ccco1)C(C)c1nc(C(C)(C)C)no1 (stereo not shown)	-7.018
COc1ccccc1CC1CCCN(CC(N)=O)C1 (stereo not shown)	4.393
c1cnc(N2CCC3(CCCN(CC4CCCCC4)C3)C2)cn1 (stereo not shown)	18.19
COC(=O)c1cnc2c(c(C)nn2C)c1OC	-5.723
CC(C)NC(=O)COc1cccc(-c2nc(C(C)C)no2)c1	-0.8057
CN(CC1CC1)c1ccc2ccc(C(=O)NC3CCCCC3)cn12	10.11
COCCN1CCC(CNC(=O)C2(c3cccc(C)c3)CC2)CC1	-5.012
COCC1Cn2nnc(-c3cnn(C)c3)c2CN1Cc1ccoc1.O=C(O)C(F)(F)F (stereo not shown)	-7.762
CC(C)c1ccc(S(=O)(=O)N2CSCC2C(=O)NCC(F)(F)F)cc1 (stereo not shown)	0.6057
COc1ccc(CCN(C)CCS(=O)(=O)c2ccc(Cl)cc2)cc1OC	7.171
Cc1nn(C)c(N2CCOCC2)c1CNC1CCN(C(C)(C)C)CC1	-0.08224
CCO[C@@H]1CCN(C(=O)c2cnc(C)cn2)[C@@H]1Cc1cnn(C)c1	1.649
COc1ncccc1NC(=O)N1CCC(CNC(C)=O)CC1	-10.52
COc1ccc(C(O)CNC(=O)NCCc2csc(C)n2)cc1 (stereo not shown)	-19.37 & -14.66 & 15.65
Cc1ccc(S(=O)(=O)NCC2COCc3c(C)nnn3C2)cc1F (stereo not shown)	10.71
Cc1nc(CN(C)C2CCN(CC3CCCCC3)C2)no1 (stereo not shown)	0.919
CN(C)CCN1CCCC12CCN(C(=O)c1cccn1C)CC2.O=C(O)C(F)(F)F.O=C(O)C(F)(F)F	-7.494
O=C(O)C(F)(F)F.O=C(O)C(F)(F)F.[H][C@@]12CN(Cc3ccncc3)C[C@]1([H])C(=O)N(c1ccsc1)C2	-11.77
CS(=O)(=O)c1cnc(N2CCCC2)nc1C1CCN(C(=O)C2CC2)CC1	13.89
COCCCNC(=O)Nc1cccc2c1CCN(S(C)(=O)=O)C2	-1.961
COCCN1CCOCC12CCN(C(=O)c1ccoc1)CC2.O=C(O)C(F)(F)F	-2.259
CCN(Cc1ccc2c(c1)OCCO2)C(=O)NC(C)Cn1cccn1 (stereo not shown)	7.169
CCN1CCNC(=O)C12CCN(S(=O)(=O)c1ccccc1)CC2	11.12
CCn1nc(C(=O)N2CCCC(n3cncn3)C2)ccc1=O (stereo not shown)	-12.95
[H][C@]12CCC(=O)N(Cc3csc(C)n3)[C@@]1([H])CCN2C(=O)COCC	-1.684

The values are deposited in ChEMBL (CHEMBL3988442, “University of Dundee, Small-Polar-MMV Screening Library” (2021)).